From patent publication US8637550B2, “Heteroaryl diamide compounds useful as MMP-13 inhibitors” (Boehringer Ingelheim International GmbH, priority 2008, dated 2014)
The match of structure and compound is tentative.

Biological target: MMP-13 (Homo sapiens, UniProt P45452)
Test: EnzoLyte 520 Generic MMP Assay Kit, 5-FAM/QXL520 FRET peptide substrate
Type: biochemical
Conditions: read-out: MMP-13 IC50

Structure (SMILES): CNC(=O)[C@@H](NC(=O)c1ccc(-c2cccc(CNC(=O)OCCOC)c2)o1)C1CCCCC1
- IC50: 397 nM
